We go through two molecules from PMC9843051.

Protein sequences, listed by entry. Tags and fused reporters are not part of them.
UniProt P06493: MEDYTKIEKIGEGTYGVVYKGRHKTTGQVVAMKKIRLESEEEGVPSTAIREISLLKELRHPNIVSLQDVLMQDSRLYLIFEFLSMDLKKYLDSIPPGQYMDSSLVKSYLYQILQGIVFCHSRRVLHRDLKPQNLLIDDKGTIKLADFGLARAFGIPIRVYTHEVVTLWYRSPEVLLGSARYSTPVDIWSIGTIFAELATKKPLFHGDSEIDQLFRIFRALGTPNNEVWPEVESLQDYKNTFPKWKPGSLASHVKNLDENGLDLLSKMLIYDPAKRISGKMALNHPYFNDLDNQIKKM

Results are given in words; binding and its absence hold for the method and conditions named. Binding seen in cells or lysates may run through a third protein. Some entries that bind do so weakly or less than the wild type.

Test [1] has as its target T1, outer dense fiber of sperm tails 2-like (ODF2L) (human (endogenous in EOC cell lines)) (UniProt Q9ULJ1).
T1 sequence: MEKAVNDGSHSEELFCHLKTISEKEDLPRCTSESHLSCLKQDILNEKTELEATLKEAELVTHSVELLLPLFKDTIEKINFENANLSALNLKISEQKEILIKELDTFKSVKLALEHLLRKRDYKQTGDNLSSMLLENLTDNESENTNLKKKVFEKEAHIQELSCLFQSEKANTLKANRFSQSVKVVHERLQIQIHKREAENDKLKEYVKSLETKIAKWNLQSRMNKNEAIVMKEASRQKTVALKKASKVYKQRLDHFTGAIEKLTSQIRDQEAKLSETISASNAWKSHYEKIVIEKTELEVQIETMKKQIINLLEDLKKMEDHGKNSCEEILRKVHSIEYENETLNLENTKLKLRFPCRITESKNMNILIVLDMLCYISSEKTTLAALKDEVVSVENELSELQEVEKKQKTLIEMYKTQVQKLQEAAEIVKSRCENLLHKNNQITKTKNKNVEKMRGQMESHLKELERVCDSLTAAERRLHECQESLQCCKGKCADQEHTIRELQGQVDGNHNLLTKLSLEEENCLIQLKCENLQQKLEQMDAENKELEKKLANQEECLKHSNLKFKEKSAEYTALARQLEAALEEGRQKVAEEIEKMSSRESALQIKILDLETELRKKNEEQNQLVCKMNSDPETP
Kind of test: co-IP; reverse coimmunoprecipitation of endogenous proteins: immunoprecipitation against ODF2L or PKMYT1 from EOC cell lysate extracted 4 hours after G1-S release, followed by immunoblotting. Background: In western blotting, separated proteins are transferred to a membrane and probed.

Test [2] deals with CDK1 (human (endogenous in EOC cell lines)) (UniProt P06493). Nature of the test: co-IP; immunoprecipitation of endogenous CDK1 from EOC cells, followed by immunoblotting; control cells and cells with ODF2L knockdown or PKMYT1 knockdown.

B1: PKMYT1 (enzyme, UniProt Q99640 1-499)
chain: MLERPPALAMPMPTEGTPPPLSGTPIPVPAYFRHAEPGFSLKRPRGLSRSLPPPPPAKGSIPISRLFPPRTPGWHQLQPRRVSFRGEASETLQSPGYDPSRPESFFQQSFQRLSRLGHGSYGEVFKVRSKEDGRLYAVKRSMSPFRGPKDRARKLAEVGSHEKVGQHPCCVRLEQAWEEGGILYLQTELCGPSLQQHCEAWGASLPEAQVWGYLRDTLLALAHLHSQGLVHLDVKPANIFLGPRGRCKLGDFGLLVELGTAGAGEVQEGDPRYMAPELLQGSYGTAADVFSLGLTILEVACNMELPHGGEGWQQLRQGYLPPEFTAGLSSELRSVLVMMLEPDPKLRATAEALLALPVLRQPRAWGVLWCMAAEALSRGWALWQALLALLCWLWHGLAHPASWLQPLGPPATPPGSPPCSLLLDSSLSSNWDDDSLGPSLSPEAVLARTVGSTSTPRSRCTPRDALDLSDINSEPPRGSFPSFEPRNLLSLFEDTLDPT
As to B1, the binding entry in test [1] is listed as “binds”.

B2: outer dense fiber of sperm tails 2-like (ODF2L) (protein, UniProt Q9ULJ1 1-636)
chain: MEKAVNDGSHSEELFCHLKTISEKEDLPRCTSESHLSCLKQDILNEKTELEATLKEAELVTHSVELLLPLFKDTIEKINFENANLSALNLKISEQKEILIKELDTFKSVKLALEHLLRKRDYKQTGDNLSSMLLENLTDNESENTNLKKKVFEKEAHIQELSCLFQSEKANTLKANRFSQSVKVVHERLQIQIHKREAENDKLKEYVKSLETKIAKWNLQSRMNKNEAIVMKEASRQKTVALKKASKVYKQRLDHFTGAIEKLTSQIRDQEAKLSETISASNAWKSHYEKIVIEKTELEVQIETMKKQIINLLEDLKKMEDHGKNSCEEILRKVHSIEYENETLNLENTKLKLRFPCRITESKNMNILIVLDMLCYISSEKTTLAALKDEVVSVENELSELQEVEKKQKTLIEMYKTQVQKLQEAAEIVKSRCENLLHKNNQITKTKNKNVEKMRGQMESHLKELERVCDSLTAAERRLHECQESLQCCKGKCADQEHTIRELQGQVDGNHNLLTKLSLEEENCLIQLKCENLQQKLEQMDAENKELEKKLANQEECLKHSNLKFKEKSAEYTALARQLEAALEEGRQKVAEEIEKMSSRESALQIKILDLETELRKKNEEQNQLVCKMNSDPETP
Take B2: the binding result in test [2] is recorded as “binds”.
